Measurements reported in PubChem BioAssay AID602196 (INSERM, 2012).
Purpose: 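Knock-downs that protect lung cancer cells from cisplatin or sensitise them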. Cell system: human A549 lung cancer cells. Knock-down reagent: siRNA pair against human genes. Time to read-out: 48 h transfection before cisplatin; time from cisplatin to read-out not stated. Conditions: cisplatin at a dose killing half of control-siRNA cells; exact dose and duration not given. Measurement: 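Shift in cisplatin death relative to control siRNA, from -50 (all cells die) to +50 (no cells die); siRNAs harmful on their own scored 0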. Scale: two-siRNA summed score (-2 to +2): higher = both siRNAs protect from cisplatin killing; -2 means both sensitise. Rule for the call: 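Each siRNA scores 0 if harmful alone by LDH or WST-1, otherwise +1 if it reduces and -1 if it increases cisplatin killing; a gene is active when both siRNAs agree (sum +2 or -2)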. Calls: active = both siRNAs shift cisplatin killing the same way; inactive = no consistent shift, or siRNA harmful alone.
Shown is an unselected part of about 23,000 reagents tested. 455 of them (2%) were called active. 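Active includes both protection and sensitisation; some change values fall well beyond the stated -50 to +50 range.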 Further read-outs or replicates are left out here. Not given: the amount of reagent.

Gene	two-siRNA summed score (-2 to +2)	call
JAKMIP1-DT	0	inactive
MEPE	0	inactive
LOC130355	0	inactive
TSKS	0	inactive
NDUFB4P12	0	inactive
PLCXD3	2	active
LOC388504	0	inactive
LOC400224	0	inactive
HAP1	0	inactive
HCLS1	1	inactive
DDX18	0	inactive
LOC389403	1	inactive
WFDC1	0	inactive
NOL4L	-1	inactive
PCNX2	0	inactive
TAAR3P	0	inactive
BAG5	0	inactive
PTPRH	0	inactive
NR1H4	0	inactive
P2RX1	0	inactive
SSTR5-AS1	0	inactive
TMEM234	-2	active
TBC1D22B	0	inactive
DDX3Y	0	inactive
RPGRIP1L	0	inactive
STX6	0	inactive
RRAGD	0	inactive
RNASEH2C	0	inactive
LOC402098	1	inactive
NUCLEOLIN	0	inactive
ORMDL1	0	inactive
LOC401021	0	inactive
KRTCAP3	0	inactive
CDCA7	0	inactive
CEP57	1	inactive
PIK3R2	0	inactive
SERPI-2	-1	inactive
ADCK5	0	inactive
LOC285940	1	inactive

5 neighbouring entries from above, quoted:
Gene	two-siRNA summed score (-2 to +2)	call
TSKS	0	inactive
NDUFB4P12	0	inactive
PLCXD3	2	active
LOC388504	0	inactive
LOC400224	0	inactive
